# Data published in patent US20250172543A1, “HIGH DENSITY 3D HEPATOCYTE SPHEROID PLATFORM FOR DRUG ADME STUDIES” (Discovery Life Sciences, LLC, priority 2018, published 2025).
# System: 3D primary human hepatocyte (PHH) high density spheroids
# Test: 3D PHH high density spheroid drug clearance assay
# Type: in vitro ADME
# Settings: 0.1 μM substrate, 6-well spheroid insert, in vivo hepatic clearance predicted from in vitro Clint by well stirred model
compound,measurement,value
CN1C(=O)CN=C(c2ccccc2)c2cc(Cl)ccc21 [Diazepam],"Predicted CLh, 3D HD Spheroids",0.09
